Results are given in words; binding and its absence hold for the method and conditions named. Some entries that bind do so weakly or less than the wild type.
Target: cynomolgus IL-21 receptor on cells (cynomolgus monkey, UniProt G7Q0S8 41-559)
Assay: flow cytometry, full length cyno IL-21R on 293T cells

The chains behind the UniProt entries cited, without tags or fusion partners. Where a name states a change or a piece, a line headed by the entry shows the natural chain unless it says otherwise. A line that says so, or that is headed by a name, gives the form on record, which may keep a tag or linker.
cynomolgus IL-21 receptor on cells (G7Q0S8, form named): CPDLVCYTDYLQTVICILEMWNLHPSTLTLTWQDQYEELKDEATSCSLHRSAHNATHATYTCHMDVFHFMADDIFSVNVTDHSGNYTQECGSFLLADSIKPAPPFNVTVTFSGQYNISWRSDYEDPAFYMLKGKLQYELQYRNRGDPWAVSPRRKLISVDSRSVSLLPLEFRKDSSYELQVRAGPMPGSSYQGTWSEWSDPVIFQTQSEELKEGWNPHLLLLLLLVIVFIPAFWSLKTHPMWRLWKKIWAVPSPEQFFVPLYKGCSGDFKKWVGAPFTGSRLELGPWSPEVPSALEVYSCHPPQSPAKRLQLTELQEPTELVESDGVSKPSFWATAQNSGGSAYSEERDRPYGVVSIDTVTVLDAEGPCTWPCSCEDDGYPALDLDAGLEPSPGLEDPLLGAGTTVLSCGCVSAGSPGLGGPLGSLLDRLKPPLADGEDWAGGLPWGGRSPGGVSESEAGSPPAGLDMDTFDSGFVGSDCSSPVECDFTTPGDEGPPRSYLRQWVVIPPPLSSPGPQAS

| binding | Binder |
| --- | --- |
| binds | 30G3 (antibody, V domains shown, Fully human antibody from XenoMouse; also called anti-IL-21 receptor antibody 30G3; IL-21R mAb 30G3) VH: QVQLQESGPGLVKPSETLSLTCTVSGGSISSYYWSWIRQPAGKGLEWIGRIYTSGSTYFNPSLKSRVTMSVDTSKNQFSLKLSSVTAADTAVYYCARGRELLDYWGQGTLVTVSS VL: EVVLTQSPGTLSLSPGERATLSCRASQSFSSSYLAWYQQKPGQAPRLLIFGASSRATGIPDRFSGSGSGTDFTLTINRLEPEDFALYYCQQYGRSPLTFGGGTKVEIKR |
| binds | 34H7 (antibody, V domains shown, Fully human antibody from XenoMouse, subcloned as a full IgG construct; also called anti-IL-21 receptor antibody 34H7; IL-21R mAb 34H7) VH: EVQLVQSGAELKKPGESLKISCKGSGYRFTSYWIGWVRQMPGKGLEWMGIIYPGDSDTRYSPSFQGQVTISADKSISTAYLQWHSLKVSDTAMYYCASPGYSTRWYHFDYWGQGTLVTVSS VL: EIVMTQSPATLSVSPGERATLSCRASQSISSSLVWYQQKPGQAPRLLIYGASTRATGIPARFSGSGSGTEFSLTISSLQSEDFAVYYCQQYNNWPLLTFGPGTKVDIKR |

— US20140105900A1 (Amgen, published 2014)
